From patent US20030180888A1
These are yes or no findings as the source states them, for the method shown. Some entries that bind do so weakly or less than the wild type. Where a sequence is shown, tags or fusion partners need not be part of it.

Sequences of proteins named here, by UniProt entry; tags and fusion partners are left off. A change or cut given only in a name is not applied to a line headed by its entry.
UniProt P04386: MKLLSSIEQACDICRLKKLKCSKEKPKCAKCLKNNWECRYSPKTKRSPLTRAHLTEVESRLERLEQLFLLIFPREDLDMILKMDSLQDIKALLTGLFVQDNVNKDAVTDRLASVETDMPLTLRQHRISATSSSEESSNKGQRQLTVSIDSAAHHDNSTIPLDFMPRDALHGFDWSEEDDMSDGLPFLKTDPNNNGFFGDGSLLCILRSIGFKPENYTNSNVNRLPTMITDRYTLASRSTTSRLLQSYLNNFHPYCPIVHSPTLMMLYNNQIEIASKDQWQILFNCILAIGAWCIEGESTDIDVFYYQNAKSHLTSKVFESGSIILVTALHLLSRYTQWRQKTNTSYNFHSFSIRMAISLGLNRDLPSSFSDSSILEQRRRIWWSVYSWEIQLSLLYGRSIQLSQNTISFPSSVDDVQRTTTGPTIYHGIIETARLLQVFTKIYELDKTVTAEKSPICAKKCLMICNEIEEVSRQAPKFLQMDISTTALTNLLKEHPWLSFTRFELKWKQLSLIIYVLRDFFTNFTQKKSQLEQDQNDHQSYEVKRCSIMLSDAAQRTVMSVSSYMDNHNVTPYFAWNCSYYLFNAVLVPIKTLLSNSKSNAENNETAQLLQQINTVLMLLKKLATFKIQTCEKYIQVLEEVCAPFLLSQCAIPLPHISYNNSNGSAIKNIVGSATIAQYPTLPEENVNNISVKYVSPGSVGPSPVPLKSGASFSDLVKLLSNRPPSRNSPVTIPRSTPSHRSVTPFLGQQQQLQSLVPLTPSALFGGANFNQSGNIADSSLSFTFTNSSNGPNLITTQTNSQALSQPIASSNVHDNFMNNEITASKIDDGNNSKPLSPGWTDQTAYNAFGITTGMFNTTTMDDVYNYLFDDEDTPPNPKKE

Target: T1, Gal-4 activation domain-CD150 fusion construct (SLAM), without c-fyn (UniProt Q13291)
T1 sequence (looked up): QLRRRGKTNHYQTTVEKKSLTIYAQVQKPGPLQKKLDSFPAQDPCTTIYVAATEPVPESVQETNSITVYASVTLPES
Experiment: classical yeast two-hybrid, beta-galactosidase reporter, no c-fyn

Gal-4 binding domain-SAP fusion (human SLAM associated protein, SAP) (from UniProt P04386 1-147; O60880 1-128)
binding: binds
